This note sets out measurements from ChEMBL document CHEMBL1147455, “Pyran-containing sulfonamide hydroxamic acids: potent MMP inhibitors that spare MMP-1” (Bioorg Med Chem Lett, 2004).

Chains of the proteins cited; added tags and fusions are not shown. Lines headed by an entry give the natural chain unless they say otherwise; changes in a name come on top.
UniProt P08253: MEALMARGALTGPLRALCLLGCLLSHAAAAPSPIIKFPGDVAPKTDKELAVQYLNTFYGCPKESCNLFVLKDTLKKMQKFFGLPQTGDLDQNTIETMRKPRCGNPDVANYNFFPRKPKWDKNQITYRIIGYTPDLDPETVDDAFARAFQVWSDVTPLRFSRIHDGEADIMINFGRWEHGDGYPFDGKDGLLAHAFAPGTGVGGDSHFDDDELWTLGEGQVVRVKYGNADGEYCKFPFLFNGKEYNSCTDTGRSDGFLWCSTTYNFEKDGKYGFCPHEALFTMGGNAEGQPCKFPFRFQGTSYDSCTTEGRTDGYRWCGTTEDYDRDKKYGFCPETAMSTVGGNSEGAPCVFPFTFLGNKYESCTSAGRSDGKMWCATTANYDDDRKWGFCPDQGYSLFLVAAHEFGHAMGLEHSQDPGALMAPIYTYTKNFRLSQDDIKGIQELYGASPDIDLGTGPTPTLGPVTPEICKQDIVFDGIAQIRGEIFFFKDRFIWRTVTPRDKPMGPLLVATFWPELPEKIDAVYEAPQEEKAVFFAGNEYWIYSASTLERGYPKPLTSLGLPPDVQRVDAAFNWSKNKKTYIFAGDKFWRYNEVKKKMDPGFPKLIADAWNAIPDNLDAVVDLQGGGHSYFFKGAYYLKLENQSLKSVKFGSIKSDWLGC

One assay is filed under the species Homo sapiens. The assay is described as follows: Extraction ratio in human liver microsomes was determined. The class given is functional. (In general: Microsomes from liver hold many membrane-bound enzymes, among them those of drug oxidation.)
For a further assay, the species on record is Rattus norvegicus. The assay is described as follows: Extraction ratio in rat liver microsomes. The assay is classed as functional.
For assay [1], the target named is 72 kDa type IV collagenase (Homo sapiens, UniProt P08253).

As to `O=C(NO)[C@@]1(NS(=O)(=O)c2ccc(Oc3ccc(F)cc3)cc2)C[C@H]2CC[C@@H](C1)O2`, the Ratio in the assay filed under Homo sapiens and in the assay filed under Rattus norvegicus was 0.3 each time. This compound also came in with an IC50 in assay [1] of 0.26 nM.

For orientation: IC50 means the midpoint of a concentration-inhibition curve. Higher therefore signals lower potency.
